Reference: paper PMC2787623
These are yes or no findings as the source states them, for the method shown. Some binding calls cover weakened binding; strength is not graded here.

Target: native enamel matrix proteins (amelogenin) from bovine (Bos taurus) (Bos taurus (endogenous in enamel of unerupted teeth)) (UniProt P02817)
Assay: dynamic light scattering + atomic force microscopy; native enamel protein extracts of four species; diameters of supramolecular assemblies (nanospheres) compared; AFM in fluid on mica, 40 mM Tris pH 8.0; conditions of DLS not told

B1: native enamel matrix proteins (amelogenin) from bovine (Bos taurus) (protein, UniProt P02817 17-213)
chain: MPLPPHPGHPGYINFSYEVLTPLKWYQSMIRHPYPSYGYEPMGGWLHHQIIPVVSQQTPQNHALQPHHHIPMVPAQQPVVPQQPMMPVPGQHSMTPTQHHQPNLPLPAQQPFQPQSIQPQPHQPLQPHQPLQPMQPMQPLQPLQPLQPQPPVHPIQPLPPQPPLPPIFPMQPLPPMLPDLPLEAWPATDKTKREEVD
- binding: binds
